# The other results are listed elsewhere or left out. Shown are side measurements of this screen, not its main read-out; they come without a call. The list favours compounds with an active or inconclusive main result. Words in brackets tell the shape of the fitted curve; partial curves, single points and poor fits give uncertain potencies.
# Experiment: qHTS Assay for Lipid Storage Modulators in Drosophila S3 Cells;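 on cell number change: cells counted by Cell Tracker Red CMTPX staining in the red channel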
# Details: BODIPY lipid droplet fluorescence, 18-24 h; for cell number change: measured here: cell count max response, cells fed with added oleic acid
# Method in brief: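 Drosophila S3 cells got compounds at several concentrations plus oleic acid (400 uM solution). Laser-scanning cytometry with 488 nm excitation read lipid droplets at 500-530 nm and cells at 575-640 nm. Percent activity was relative to 20 uM Triacsin C.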
# [1] = measured here: cell number channel AC50, cells fed with added oleic acid
# [2] = measured here: lipid fluorescence (Fed channel) AC50, cells fed with added oleic acid
Structure (SMILES),cell number change,AC50 [1],AC50 [2]
O=C(OC1CCOC1=O)C1CCN(S(=O)(=O)c2c(Cl)cccc2Cl)CC1 (stereo unspecified),39%,"23.1 µM [rising, single point]",
CC1CCCC(n2c(=S)[nH]c3ccccc3c2=O)C1C (stereo unspecified),-48%,"29.1 µM [falling, single point]",
CC(=O)c1cc2c(cc1NC(=O)Cn1nc(C)c(C)c(C#N)c1=O)OCO2,35.3%,"0.116 µM [rising, full curve, poor fit]","1.46 µM [rising, full curve]"
O=C(Nc1nnc(-c2cccs2)o1)c1cccc(Oc2ccccc2)c1,,"0.164 µM [falling, partial curve]","6.51 µM [rising, partial curve]"
CCO[C@H]1OC(C(=O)N2CCN(Cc3ccc4c(c3)OCO4)CC2)=C[C@@H](C(C)(C)C)[C@@H]1CCCO,-14.1%,,"29.1 µM [falling, single point]"
COc1ccc(C2C(C#N)=C(N)OC3=C2C(=O)CCC3)c(OC)c1OC (stereo unspecified),-5.74%,,
O=C(Nc1ccc2oc(-c3cccc4ccccc34)nc2c1)c1ncn[nH]1,,"1.84 µM [rising, partial curve, poor fit]",
COc1ccc(/C=C2\SC(=NCc3ccccc3)N(Cc3ccccc3)C2=O)cc1OC,,,"0.291 µM [rising, partial curve, poor fit]"
Fc1ccc(CNCCC(Cc2ccccc2)c2ccco2)cc1 (stereo unspecified),-18.6%,,"2.31 µM [rising, partial curve]"
C=CCNC(=O)c1cn(CC)c2cc(N3CCN(C(=O)c4ccco4)CC3)c(F)cc2c1=O,8.78%,,"16.4 µM [falling, single point]"
COc1ccccc1/C=C/C(=O)N1CCOCC1,,,"0.146 µM [rising, full curve, poor fit]"
Cc1cccc(-n2ncc3c(NCCN4CCOCC4)ncnc32)c1,-18.6%,"0.82 µM [falling, full curve, poor fit]","0.731 µM [falling, full curve]"
COc1ccc(/C=N/NC(=O)c2c(C)nnn2-c2nonc2N)cc1OC,1.1%,,
Cc1ccc(S(=O)(=O)N(C)C)cc1NC(=O)c1cc(S(=O)(=O)N2CCCCC2)ccc1N1CCOCC1,94.5%,"23.1 µM [rising, single point]",
CCC1=NN(C(=O)c2ccccc2O)C(O)(c2ccccc2)C1 (stereo unspecified),-17.3%,,
CCCCCCC1/C(=N/O)CCC1C(=O)OC (stereo unspecified),165%,"29.1 µM [rising, single point]","6.51 µM [rising, partial curve, poor fit]"
O=C1CC(c2ccc(S(=O)(=O)N3CCCCC3)cc2)CN1 (stereo unspecified),5.61%,,
COc1ccc(CNC(=O)CSc2nnc(C(F)(F)F)n2C)cc1,1.7%,"7.31 µM [falling, single point]","6.51 µM [falling, single point]"
CCN(C(=O)CSc1nnc(SC(C)C)s1)C1CCS(=O)(=O)C1 (stereo unspecified),-4.84%,,"4.11 µM [rising, partial curve, poor fit]"
COc1ccc2c(=O)c(-c3cnn(-c4ccccc4)c3)c(C)oc2c1,-6.74%,"0.731 µM [falling, partial curve, poor fit]",

Structure (SMILES),cell number change,AC50 [1],AC50 [2]
Cc1c(OC(C)C(=O)NCC(O)c2ccccc2)ccc2c3c(c(=O)oc12)CCC3 (stereo unspecified),-12.6%,"6.51 µM [falling, single point]",
Cc1cc(C)c2oc(C(=O)N(Cc3ccc(F)cc3)C3CCS(=O)(=O)C3)cc(=O)c2c1 (stereo unspecified),-36.3%,,"29.1 µM [falling, single point]"
Cc1ccc(NS(=O)(=O)c2cccc(C(=O)OCC(=O)NCc3ccco3)c2)cc1,0.535%,,"0.326 µM [rising, full curve]"
COc1ccccc1CN(CC(=O)NCc1ccc(F)cc1)C(=O)c1csnn1,-12.1%,,
Cc1nc(SCC(=O)Nc2cccnc2Cl)nc(C)c1C,38.4%,,
C/C(N)=C(/C#N)C(=O)CSc1nnc(Nc2ccccc2)s1,7.11%,"6.51 µM [falling, single point]","0.0651 µM [rising, full curve, poor fit]"
Cc1cccc(CN2CCC(C(=O)Nc3ccc(-n4nc(C)cc4C)cc3)CC2)n1,17.3%,,"0.58 µM [rising, single point]"
COc1cccc(CC(=O)Nc2cc(S(=O)(=O)N3CCOCC3)ccc2OC)c1,108%,"10.3 µM [rising, partial curve]",
O=C(CSc1nc(O)cc(=O)[nH]1)N1c2ccccc2Sc2ccccc21,12.7%,,"1.3 µM [rising, full curve, poor fit]"
COc1ccccc1Nc1ccc2nonc2c1[N+](=O)[O-],-18.8%,,"0.206 µM [falling, single point]"
COC(=O)c1ccc(N2CCN(S(=O)(=O)c3ccccc3)CC2)c([N+](=O)[O-])c1,,,"2.31 µM [rising, single point]"
CCOC(=O)c1ccc(NS(=O)(=O)c2cc(C)ccc2OC)cc1,-34.2%,"16.4 µM [falling, single point]","1.03 µM [rising, partial curve]"
CC(C)CC(=O)NNC(=O)C(C)C,2.52%,,
Cc1ccc(S(=O)(=O)c2nc(-c3ccco3)oc2SCC(=O)NCC2CCCO2)cc1 (stereo unspecified),,"0.116 µM [rising, full curve, poor fit]",
O=C(Cn1cnc2c(nnn2-c2cccc(F)c2)c1=O)Nc1ccc2c(c1)OCCO2,15.1%,,
O=C(NCc1ccc2c(c1)OCO2)c1ccc(S(=O)(=O)N2CCCCC2)cc1,19.3%,,"14.6 µM [rising, partial curve]"
Cc1nccc2oc(=O)c(NC(=O)c3ccc(Cl)cc3)cc12,5.22%,"6.51 µM [rising, single point]",
Cc1cc(=O)[nH]c2nnc(SCC(=O)N3CC(C)OC(C)C3)n12 (stereo unspecified),-52.1%,"25.9 µM [falling, single point]","25.9 µM [falling, single point]"
Fc1cccc(Cc2noc(CN3CCN(c4cnccn4)CC3)n2)c1,8.46%,,"0.58 µM [rising, full curve, poor fit]"
COCCCNCC1C(Oc2ccc(Cl)cc2)C(=O)N1c1ccccc1C (stereo unspecified),-9.05%,,"29.1 µM [rising, single point]"

Structure (SMILES),cell number change,AC50 [1],AC50 [2]
CN(NC(=O)c1c(Cl)cccc1Cl)c1cccc(Cl)n1,-32.9%,"32.6 µM [falling, single point]",
COc1ccccc1C/C(N)=N/OC(=O)c1ccco1,7.4%,,"6.51 µM [falling, single point]"
CCN1C(=O)S/C(=C/c2ccc(Sc3nc4ccccc4[nH]3)o2)C1=O,-20.7%,,"18.4 µM [falling, single point]"
COc1ccc(OCCn2c(C)c(/C=N/n3cnnc3)c3ccccc32)cc1,-32.7%,"32.6 µM [falling, single point]",
O=C(c1ccccc1)c1ccc(OCC(O)CN2CCN(S(=O)(=O)N3CCCCC3)CC2)cc1 (stereo unspecified),62.3%,"5.17 µM [rising, full curve]","7.31 µM [rising, partial curve]"
CCOc1ccc(Cc2nnc(SCC(=O)Nc3ccc(OC)cc3)n(N)c2=O)cc1,69%,"20.6 µM [rising, partial curve]",
O=C(N/N=C/c1c[nH]c2ccccc12)c1ccc(Br)cc1,-36.8%,"20.6 µM [falling, single point]","14.6 µM [falling, partial curve, poor fit]"
O=C(Nc1sc2c(c1C(=O)O)CCCC2)c1ccccc1Cl,42.3%,"3.26 µM [rising, partial curve]","25.9 µM [rising, single point]"
CCC(=O)N1CCc2cc(S(=O)(=O)NCCC(=O)N3CCN(c4cccc(C)c4)C(C)C3)ccc21 (stereo unspecified),-7.6%,"1.64 µM [rising, partial curve, poor fit]","6.51 µM [rising, single point]"
O=C(NNC(=O)c1ccc([N+](=O)[O-])o1)c1ccccc1,18%,,
CS(=O)(=O)N1CCN(c2nc3ccccc3s2)CC1,-10%,,"6.51 µM [rising, full curve, poor fit]"
CCc1ccc(-c2cc(C)no2)cc1S(=O)(=O)N1CCN(c2ccccc2)CC1,5.19%,"6.51 µM [rising, single point]","6.51 µM [rising, single point]"
COC(=O)Cn1c2ccccc2c2nc3ccccc3nc21,4.21%,,"29.1 µM [falling, single point]"
N#Cc1ccccc1Sc1ccccc1C(=O)Nc1ccc(Br)cc1,148%,"0.146 µM [rising, full curve, poor fit]","29.1 µM [rising, single point]"
CN(Cc1ccccc1)C(=O)c1nc2ccccn2c1CNCCCOc1cccnc1,10.2%,,"0.103 µM [rising, full curve, poor fit]"
N#Cc1cc(Oc2ccc3ccccc3c2)c(-n2nnc3ccccc32)cc1C#N,12.5%,"2.91 µM [rising, partial curve]","5.8 µM [rising, partial curve]"
Cc1ccccc1-c1nn(-c2ccc(F)cc2F)cc1CNCCCO,13.6%,,"2.91 µM [rising, partial curve, poor fit]"
Cc1cccc(NCC(=O)N/N=C\c2cccc(Oc3ccccc3)c2)c1,-25.4%,,"25.9 µM [falling, single point]"

# A section taken from the entries so far, for reference:
Structure (SMILES),cell number change,AC50 [1],AC50 [2]
O=C(c1ccccc1)c1ccc(OCC(O)CN2CCN(S(=O)(=O)N3CCCCC3)CC2)cc1 (stereo unspecified),62.3%,"5.17 µM [rising, full curve]","7.31 µM [rising, partial curve]"
CCOc1ccc(Cc2nnc(SCC(=O)Nc3ccc(OC)cc3)n(N)c2=O)cc1,69%,"20.6 µM [rising, partial curve]",

# From PubChem BioAssay AID2685 (National Center for Advancing Translational Sciences (NCATS), 2010)
